Results of single-concentration screens

The chains behind the UniProt entries cited, without tags or fusion partners. Residues count along the entry.
UniProt A4I591, 1-473: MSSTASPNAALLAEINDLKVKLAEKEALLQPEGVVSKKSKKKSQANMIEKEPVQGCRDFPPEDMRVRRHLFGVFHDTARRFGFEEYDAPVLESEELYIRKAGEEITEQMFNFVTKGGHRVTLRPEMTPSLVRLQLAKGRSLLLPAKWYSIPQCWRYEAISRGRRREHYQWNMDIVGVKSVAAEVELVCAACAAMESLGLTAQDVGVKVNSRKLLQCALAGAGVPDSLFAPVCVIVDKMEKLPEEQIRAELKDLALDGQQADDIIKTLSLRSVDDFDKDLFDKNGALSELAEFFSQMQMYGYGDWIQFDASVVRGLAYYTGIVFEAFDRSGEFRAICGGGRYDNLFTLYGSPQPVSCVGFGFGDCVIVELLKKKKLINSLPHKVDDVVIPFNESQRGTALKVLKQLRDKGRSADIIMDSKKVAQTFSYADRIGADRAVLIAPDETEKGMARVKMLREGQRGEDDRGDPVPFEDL
UniProt I6X8D2, whole entry: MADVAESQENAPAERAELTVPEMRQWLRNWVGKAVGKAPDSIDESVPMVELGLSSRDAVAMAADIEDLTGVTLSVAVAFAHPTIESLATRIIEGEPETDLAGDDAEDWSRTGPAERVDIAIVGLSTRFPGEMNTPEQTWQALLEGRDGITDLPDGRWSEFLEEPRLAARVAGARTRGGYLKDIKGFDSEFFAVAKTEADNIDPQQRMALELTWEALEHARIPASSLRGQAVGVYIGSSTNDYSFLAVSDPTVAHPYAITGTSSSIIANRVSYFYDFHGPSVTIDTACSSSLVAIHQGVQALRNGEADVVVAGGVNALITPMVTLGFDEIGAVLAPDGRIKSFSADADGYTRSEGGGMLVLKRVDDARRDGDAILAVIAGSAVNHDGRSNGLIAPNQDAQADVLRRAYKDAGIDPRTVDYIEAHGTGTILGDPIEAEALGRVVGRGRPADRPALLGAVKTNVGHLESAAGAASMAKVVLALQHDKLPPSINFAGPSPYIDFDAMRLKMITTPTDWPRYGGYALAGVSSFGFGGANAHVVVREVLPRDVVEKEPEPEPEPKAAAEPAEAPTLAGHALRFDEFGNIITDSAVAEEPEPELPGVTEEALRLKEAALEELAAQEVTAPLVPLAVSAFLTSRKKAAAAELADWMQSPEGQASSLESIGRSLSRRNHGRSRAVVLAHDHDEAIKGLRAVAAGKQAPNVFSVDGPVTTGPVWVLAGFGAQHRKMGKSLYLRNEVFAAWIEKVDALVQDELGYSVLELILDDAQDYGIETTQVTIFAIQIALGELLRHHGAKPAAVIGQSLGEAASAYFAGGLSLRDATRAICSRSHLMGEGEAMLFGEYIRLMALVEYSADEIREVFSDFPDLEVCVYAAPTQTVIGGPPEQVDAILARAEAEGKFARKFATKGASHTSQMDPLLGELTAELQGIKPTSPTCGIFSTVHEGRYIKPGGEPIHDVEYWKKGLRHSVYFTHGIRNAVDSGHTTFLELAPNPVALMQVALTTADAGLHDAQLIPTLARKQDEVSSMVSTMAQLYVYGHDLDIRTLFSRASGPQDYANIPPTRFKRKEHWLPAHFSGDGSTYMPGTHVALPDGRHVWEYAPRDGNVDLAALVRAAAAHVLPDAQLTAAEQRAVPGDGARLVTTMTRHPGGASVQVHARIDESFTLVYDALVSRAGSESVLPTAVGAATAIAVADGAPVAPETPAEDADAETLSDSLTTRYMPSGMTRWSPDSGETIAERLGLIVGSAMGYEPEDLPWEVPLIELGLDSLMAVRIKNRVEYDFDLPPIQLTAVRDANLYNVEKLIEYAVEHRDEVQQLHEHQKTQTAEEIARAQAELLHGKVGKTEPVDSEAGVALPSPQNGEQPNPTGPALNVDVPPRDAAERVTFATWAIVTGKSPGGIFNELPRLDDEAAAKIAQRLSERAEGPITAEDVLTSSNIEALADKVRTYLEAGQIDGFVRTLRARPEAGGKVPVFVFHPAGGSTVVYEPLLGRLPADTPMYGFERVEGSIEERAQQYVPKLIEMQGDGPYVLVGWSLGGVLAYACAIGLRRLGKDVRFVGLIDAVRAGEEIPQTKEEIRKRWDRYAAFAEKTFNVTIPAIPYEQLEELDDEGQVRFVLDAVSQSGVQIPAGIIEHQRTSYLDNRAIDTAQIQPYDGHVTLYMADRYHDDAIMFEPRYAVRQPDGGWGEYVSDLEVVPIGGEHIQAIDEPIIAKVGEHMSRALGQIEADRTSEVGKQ
UniProt P9WFT3, whole entry: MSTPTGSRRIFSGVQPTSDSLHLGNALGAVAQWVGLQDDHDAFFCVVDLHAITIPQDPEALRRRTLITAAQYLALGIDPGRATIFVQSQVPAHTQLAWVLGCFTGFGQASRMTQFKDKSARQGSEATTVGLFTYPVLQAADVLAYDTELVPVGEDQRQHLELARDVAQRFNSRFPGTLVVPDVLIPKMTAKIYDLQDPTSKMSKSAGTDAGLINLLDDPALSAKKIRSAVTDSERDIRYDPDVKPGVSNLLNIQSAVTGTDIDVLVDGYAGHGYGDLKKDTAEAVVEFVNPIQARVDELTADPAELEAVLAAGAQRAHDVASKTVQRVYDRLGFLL
UniProt Q4DA54, 1-478: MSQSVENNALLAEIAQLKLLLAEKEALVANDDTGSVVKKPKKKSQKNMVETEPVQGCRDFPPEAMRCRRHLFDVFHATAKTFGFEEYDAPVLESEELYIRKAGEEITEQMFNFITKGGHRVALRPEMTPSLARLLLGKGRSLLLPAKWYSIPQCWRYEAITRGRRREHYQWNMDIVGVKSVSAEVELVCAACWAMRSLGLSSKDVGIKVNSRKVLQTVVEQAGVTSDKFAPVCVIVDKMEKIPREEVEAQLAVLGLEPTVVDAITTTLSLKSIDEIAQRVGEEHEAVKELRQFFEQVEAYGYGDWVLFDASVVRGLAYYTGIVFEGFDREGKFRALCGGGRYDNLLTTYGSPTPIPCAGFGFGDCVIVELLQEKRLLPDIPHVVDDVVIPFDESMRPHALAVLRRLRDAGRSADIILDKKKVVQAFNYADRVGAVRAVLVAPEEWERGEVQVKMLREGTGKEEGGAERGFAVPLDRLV

Data taken from ChEMBL document CHEMBL3988442, “University of Dundee, Small-Polar-MMV Screening Library” (2021).

A: 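Histidine-tRNA ligase, Leishmania infantum (UniProt A4I591). Enzyme assay of histidyl-tRNA synthetase; the read-out is not stated. Tested at 30 µM. The record gives no direction; compounds that gave an IC50 in retests scored well above the rest, so higher reads as stronger inhibition. The assay is labelled LdHisRS but filed under L. infantum. About 69,000 compounds were tested under these conditions; 0.6% (about 410) showed 50% or more at least once.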
B: 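Enzyme assay of the thioesterase domain of polyketide synthase 13; the read-out is not stated. Target: Polyketide synthase Pks13, Mycobacterium tuberculosis (UniProt I6X8D2). Compounds at 30 µM. The record gives no direction; the compounds picked for IC50 retests had high values, so higher reads as stronger inhibition. About 67,000 compounds were tested under these conditions; 0.46% (about 300) showed 50% or more at least once.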
C: 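Tryptophan-tRNA ligase, Mycobacterium tuberculosis (UniProt P9WFT3). Enzyme assay of tryptophanyl-tRNA synthetase; the read-out is not stated. Compounds at 10 µM. Higher most likely means stronger inhibition; the record gives no direction and few retests gave an IC50. Size under these conditions: about 65,000 compounds, about 64 of them at 50% or above in at least one test.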
D: 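Enzyme assay of histidyl-tRNA synthetase; the read-out is not stated. Target: Histidine-tRNA ligase, Trypanosoma cruzi CL Brener (UniProt Q4DA54). Compounds at 30 µM. The record gives no direction; compounds that gave an IC50 in retests scored well above the rest, so higher reads as stronger inhibition. Size under these conditions: about 69,000 compounds, about 31 of them at 50% or above in at least one test.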

The filed quantity is “Percent Effect” (%).
How 0% and 100% were set is not recorded. Most values in the screen are low, and negative values occur.
Compounds were drawn at random from those tested, without regard to their results.
A dash means the value is not listed here; it may have been measured.

structure	A	B	C	D
O=C(NCCCOCc1ccco1)c1cccnc1N1CCOCC1	-55.29	-14.68	-2.13	1.345
CNC(=O)[C@H]1C[C@@H]2CN(C(=O)c3occc3C)C[C@@H]2N1S(C)(=O)=O	8.333	-9.461	-1.507	4.762
CCS(=O)(=O)N1C[C@H]2CN(CC3CC3)C(=O)[C@H]2C1	13.21	-3.673	-	13.33
CNc1cc(C2CN(CC(=O)N(C)C)CCO2)nc(C)n1 (centres undefined)	11.72	4.406	-4.549	7.605
Cc1nc2n(n1)CC(NCCCc1nc(-c3cccs3)no1)CC2 (centres undefined)	12.68	-33.95	7.366	4.459
COCCOc1ccccc1C(=O)NCCN(C)C(C)C	10.53	7.588	0.6152	6.59
Cc1ccc(C(=O)NCCNS(C)(=O)=O)c(=O)[nH]1	18.18	-24.21	-2.825	2.174
c1cnc(NCc2noc3c2CN(C2CCOCC2)CC3)nc1	15.09	-13.38	0.9444	-0.5405
CCC(CO)N(Cc1ccc(C(=O)O)cc1)Cc1ccsc1 (centres undefined)	-25.33	-7.04	-0.2653	5.202
O=C(CCc1nccs1)N1CCN(c2ccccc2F)CC1	-3.371	-17.82	-0.07868	-0.7519
CCNCCC(Cc1ccccc1)c1ccco1 (centres undefined)	12.5	-5.432	-7.434	7.292
COCCCN1CCCC12CCN(c1ncccn1)CC2	7.965	-35.83	-2.629	4.301
CC1CCCN(CCNC(=O)c2ccn(-c3ccccc3)n2)C1 (centres undefined)	-43.84	-1.481	-1.519	3.053
Cc1cc(C(=O)NCCC2CN(C)CCO2)c2cccc(C)c2n1 (centres undefined)	21.95	11.39	6.83	2.404
COc1cccc(OCC2CCCN(C3CCN(C(C)=O)CC3)C2)c1 (centres undefined)	13.46	-11.05	-8.127	6.667
CCc1ccsc1C(=O)N1CCCC(c2noc(C)n2)C1 (centres undefined)	15.07	-38.88	-1.146	-0.9852
COc1ccc2[nH]c(=O)c(CN(C)C(C)c3ccccn3)cc2c1 (centres undefined)	18.03	-17.44	2.093	8.8
CCOc1ccnc(N2CCN(C(=O)c3cc[nH]n3)CC2)n1	8.475	-14.05	-3.782	5.143
CCCN(CCOC)c1nc(C)nc2sccc12	27.63	0.0533	14.87	-2.174
CCn1cc(CNC(C)c2noc(-c3ccc(Cl)cc3)n2)cn1 (centres undefined)	14.29	9.626	17.05	0.9804
Cc1nonc1-c1nc(C(C)C)nn1-c1ccc2c(c1)OCO2	20.63	-15.75	5.285	4.615
COCCc1ncc(CN2CCC3(CCCN(CC4CC4)C3)C2)cn1 (centres undefined)	4.762	-2.708	2.016	7.921
COc1cccc(CNCCNS(=O)(=O)Cc2ccccc2)c1	12.09	-12.97	-2.155	5.155
NC(=O)CN1CCC(c2cc(C(F)(F)F)n3ccnc3n2)CC1	1.449	40.88	-	9.89
Fc1ccc(NCc2nnsc2Cl)c(OC(F)F)c1	8.108	6.379	-1.519	6.667
Cc1ccc(S(=O)(=O)NC(=O)CCC(F)(F)F)cc1N(C)C	8.046	-12.67	1.387	2.062
O=C(NC1CCCN(c2ccc(OC(F)F)cc2)C1)c1cnc[nH]1 (centres undefined)	20	-31.41	-3.818	9.091
FC(F)(F)C1CCc2nnc(CNCc3cccs3)n2C1 (centres undefined)	-5.128	-29.7	-1.373	1.205
CCN1C(=O)CC[C@]12CC[C@@H](NC(=O)c1ccncc1F)CC2	-80.77	-19.84	-6.395	-42.72
O=C(CCNCc1cccc(O)c1)N1CCc2sccc2C1	84.95	-8.996	3.15	13.69
Cc1cc(F)ccc1OC1(C(=O)O)CCN(Cc2ccncc2)CC1	22.33	-10.87	2.131	2.905
CC(C)(CO)Nc1cc(-c2cn[nH]c2)ncn1	11.43	15.39	-	-1.13
CNCc1n[nH]c(=O)n1-c1cccc(Cl)c1Cl	8.197	-12.31	2.576	-0.8
CCn1nc(C)c2ccn(CC(=O)NCCCOC)c(=O)c21	16.3	-11.91	3.11	3.96
CCc1cnc(CN(C(C)=O)C2CCN(CCc3ccncc3)C2)o1 (centres undefined)	11.61	-6.188	-8.877	9.827
Cc1c2nnn(CC(=O)N(C)C)c(=O)c2nn1C	14.71	-17.95	-1.883	2.646
Cc1cnn(C2CN(Cc3nnc(-c4ccccc4Cl)o3)C2)c1	-3.175	29.14	7.31	-3.03
Cc1ccc(C(=O)N2CCCC(n3cccn3)C2)cc1S(C)(=O)=O (centres undefined)	15.74	-8.863	-2.273	9.677
Cc1nc2c(c(NC(C)c3nnn[nH]3)n1)Cc1ccccc1OC2 (centres undefined)	20.48	-4.841	11.17	8.458
Cn1cc(C[C@H]2[C@@H](O)CCN2C(=O)C2CCC2)cn1	9.735	3.464	-1.833	7.527
O=C1CCCCN1CCC(=O)N1CCCCC1c1ccc(F)cc1 (centres undefined)	19.78	-25.87	1.325	5.422
COCC1CN(Cc2ccc(OC)cc2)S(=O)(=O)c2cnccc2O1 (centres undefined)	18.56	5.224	-	4.624
CC(C1CCN(Cc2cnn(C)c2C2CC2)CC1)N1CCCC1 (centres undefined)	28.57	-46.17	-3.199	10.39
O=C1COC2(CCN(Cc3ccc(F)cc3)CC2)CN1	21.15	-26.13	-2.251	0.5348
Cn1cc(CN2CCC(CCC(=O)NCc3ccc(F)cc3)CC2)cn1	14.29	-29.12	2.519	6.122
CN1CCc2[nH]cnc2C12CCN(C(=O)c1noc3c1CCCC3)CC2	25	-28.64	-0.1874	5.319
O=C(Cc1ccccc1)N1CC[C@@H]2CNS(=O)(=O)[C@@H]2CC1	28.07	-49.37	0.2114	4.301
CC(C)(C)c1nnc(CNc2c(F)cccc2-n2cccn2)o1	12.12	-34.64	-3.601	1.058
O=C(CC1CCCCC1)N1CCC(c2ncc3c(n2)CCNC3)CC1	26	-8.028	-	14.23
CCNC(=O)c1sccc1N(C)S(=O)(=O)c1ccc(Cl)cc1	-27.5	12.69	-3.254	-4.969
COc1cc(N2CCCC(c3ncc[nH]3)C2)ncn1 (centres undefined)	4.301	-27.82	-1.911	3.665
O=C(NCCNc1ncccn1)NCCc1c(F)cccc1F	11.61	-1.862	-7.497	3.448
CCOCC1CN(S(=O)(=O)N(C)C)Cc2cnn(CC3CC3)c21 (centres undefined)	10.81	7.576	-2.67	3.483
Cc1c[nH]nc1C1CCCN(c2cnccn2)C1 (centres undefined)	12.95	16.21	-7.161	8.046
CSCC1CCN(c2nc(N)ncc2C)CC1	7.5	3.766	-2.171	-7.729
COc1ccsc1C(=O)Nc1cc(Cl)c(=O)n(C)c1	103.4	-16.28	0.8576	26.67
CC(C)COCC(NC(=O)c1ccccn1)c1ccco1 (centres undefined)	42.86	-7.096	0.2347	2.256

Repeated from the top, 4 entries:

{"structure": "O=C(NCCCOCc1ccco1)c1cccnc1N1CCOCC1", "A": -55.29, "B": -14.68, "C": -2.13, "D": 1.345}
{"structure": "CNC(=O)[C@H]1C[C@@H]2CN(C(=O)c3occc3C)C[C@@H]2N1S(C)(=O)=O", "A": 8.333, "B": -9.461, "C": -1.507, "D": 4.762}
{"structure": "CCS(=O)(=O)N1C[C@H]2CN(CC3CC3)C(=O)[C@H]2C1", "A": 13.21, "B": -3.673, "D": 13.33}
{"structure": "CNc1cc(C2CN(CC(=O)N(C)C)CCO2)nc(C)n1", "stereo": "centres undefined", "A": 11.72, "B": 4.406, "C": -4.549, "D": 7.605}